From US10538564B2, “Peptides having osteoblast growth-promoting activity and use thereof” (PHARMA FOODS INTERNATIONAL CO., LTD., priority 2014, dated 2020)

System: mature female rats (eight months old)
Experiment: Bone formation-promoting effect in mature rats
Assay type: in vivo, rat
Details: No. 1 oral 1, 10 or 100 mg/kg·day, alendronate 300 μg/kg subcutaneous, 20 weeks, vs control group
Procedure: Synthetic peptide No. 1 was administered to mature female rats (eight months old, ten rats in each group) by oral gavage using a gastric tube once a day for 20 weeks. The dose of the synthetic peptide was 1, 10 or 100 mg/kg·day. As a positive control, alendronate sodium hydrate (hereinafter called “alendronate”) (300 μg/kg) was subcutaneously administered once a day for 20 weeks.

**Q.** `NCCCC(O)(P(=O)(O)O)P(=O)(O)O` [alendronate, alendronate sodium hydrate, reference compound] was tested. Which “bone density in the femurs” value did it give?
**A.** significantly increased
